Laboratory results published in PubChem BioAssay AID1347426 (Functional Genomics Laboratory (NCATS/FGL), 2020).
About 1,400 (4.5%) of roughly 31,000 sequences were called active.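 Rule for the calls: active = median seed-adjusted z-score above 1 or below -1; inactive = the rest.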 The list shows a part of the results.

Experiment: Novel Modifiers of Survival Motor Neuron (SMN) Protein: Gene Identification via Genome-wide siRNA Screen;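 note: luminescence tracks full-length SMN protein made from the SMN2 reporter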
Settings: HEK293T SMN2-luciferase reporter, siRNA knockdown, 72 h; actives lie on both sides
Method in brief: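 Steps: spot 1 pmol siRNA, add Lipofectamine RNAiMax in serum-free DMEM, seed HEK293T SMN2–luciferase reporter cells; incubate 72 h at 37 °C; add ONE-Glo; normalize luminescence to control siRNA, log10, MAD. Candidates: |MAD| > 1.0.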
In the case of GGGAGAAUUUUGGAACCGATT against KLHL5, the median seed-adjusted z-score is reported as inactive: 0.48. With GUCUGGACAUGUUAGCUGATT against ANP32B the median seed-adjusted z-score was inactive: 0. For GGAUCGGAUGGAUAAGAAUTT against CTTN, the median seed-adjusted z-score was inactive: -0.314. With CAAUCGCAAACUUACCAAATT against ANP32A the median seed-adjusted z-score was inactive: 0.377. In the case of “GACAGGACGUGAACAUGCATT against SLC22A18AS”, the median seed-adjusted z-score is reported as inactive: 0.0382. With CGUAAAACCCAUCAAGUUUTT against B3GALNT1 the median seed-adjusted z-score was inactive: 0.128. For CGGCUUGCCUAGUUCUCUATT against TOP3A, the median seed-adjusted z-score was inactive: 0.474. In the case of CAACUGUUAUCAGAACGAUTT against ARFIP2, the median seed-adjusted z-score is reported as inactive: 0.748. In the case of GAUUGUGAUGGAGACCGUUTT against IKBKG, the median seed-adjusted z-score is reported as inactive: -0.615. For CAACCACACUAACGAGAUUTT against GLRX, the median seed-adjusted z-score was inactive: -0.0561. For CGACAGAUAUUACAACGAATT against ROBO3, the median seed-adjusted z-score was inactive: 0.131. In the case of GCAUUAUCUUUACAGGCUUTT against SLC22A15, the median seed-adjusted z-score is reported as inactive: -0.137. In the case of GCUCAGCCCUUACUGUACATT against ZNF569, the median seed-adjusted z-score is reported as inactive: 0.425. For GCUGUUCCGGCAUUACUAUTT against GPR108, the median seed-adjusted z-score was inactive: 0.369. In the case of GUGGGACUGUAUUACAACATT against SLC6A19, the median seed-adjusted z-score is reported as inactive: 0.478. With GAUGUUAGCGAGUACCCAATT against LAMA1 the median seed-adjusted z-score was inactive: 0.494. For CAAAGGAUUAUGGAACUAATT against UMPS, the median seed-adjusted z-score was inactive: 0.191. With GGAUCUAAACCAUCCAGAUTT against MAP7 the median seed-adjusted z-score was inactive: -0.22. With GCAAUAGUAUUAUUCUGCUTT against PHTF2 the median seed-adjusted z-score was inactive: 0.389. With GAGUGUCAUAUAAACGAAUTT against VLDLR the median seed-adjusted z-score was inactive: 0.0487. For GGUAUGACAUCGAUAGUGATT against IGSF1, the median seed-adjusted z-score was inactive: 0.258. For GCCCACUACCAGUUCCUGUTT against DUSP23, the median seed-adjusted z-score was inactive: -0.537. For GCAUUAUCUCGCCUUAUAATT against ZNF491, the median seed-adjusted z-score was inactive: 0.0642. For GGAAGAAUUCAAUACGGCATT against FOXJ2, the median seed-adjusted z-score was inactive: -0.627. In the case of CGGUGCCCAGCAUACUCAATT against NR0B2, the median seed-adjusted z-score is reported as inactive: -0.374. With GUGUUUAAGGGCUUUUGAATT against CBR3 the median seed-adjusted z-score was inactive: 0.057. With CCAGCAAGCAAUUUCCUAUTT against OLR1 the median seed-adjusted z-score was inactive: 0. In the case of GCUUGUUUGAGGAAGCAGATT against ADSSL1, the median seed-adjusted z-score is reported as inactive: 0.0976. For CCAUGGAUAUUGACCAUAUTT against SEC14L3, the median seed-adjusted z-score was inactive: 0.308. With CUGUGACUUUUAUGCGAAATT against LIMS3 the median seed-adjusted z-score was inactive: -0.078. For AAGACUAUGCUGAACCGAATT against DCXR, the median seed-adjusted z-score was inactive: -0.394. With UCACCUCUCUGAGUAGCUUTT against ACTRT2 the median seed-adjusted z-score was inactive: -0.117. In the case of CGUGGAUUCUGCUAAGGGATT against MLKL, the median seed-adjusted z-score is reported as inactive: 0. In the case of GGCCUUUACAGUGCUCCAATT against ZFP14, the median seed-adjusted z-score is reported as inactive: 0.263. With GCAGAGAUUUCUUGACGUATT against ZFPM2 the median seed-adjusted z-score was inactive: 0.087. In the case of GGAACAGUCCUGUUGCAUATT against SLC24A1, the median seed-adjusted z-score is reported as inactive: 0.372. For CGGUCAUCUCAGCCGAGAATT against TUBA3C, the median seed-adjusted z-score was inactive: -0.0806. With CCACCUUCAUUCUCAACUUTT against NFKB1 the median seed-adjusted z-score was inactive: 0.31. For UCAUGCUCAUUGGGAAUAATT against RAB2B, the median seed-adjusted z-score was inactive: 0.882. With CCAACAUAGAACUCGCGGATT against PIGK the median seed-adjusted z-score was inactive: -0.456. In the case of AGGCCUAUAUUGAAGGAGATT against DGKG, the median seed-adjusted z-score is reported as inactive: 0.227. In the case of GCAGUGAGAUCGAUAGCAATT against CTNND2, the median seed-adjusted z-score is reported as inactive: -0.0491. With GCACCAAUGUAGACAUUGUTT against ZFY the median seed-adjusted z-score was inactive: -0.128. With GAGAUUUGUUUACACGCUUTT against RPS6KA3 the median seed-adjusted z-score was inactive: -0.0233. In the case of GAAUAGAGGAUAUCCUUGATT against KYNU, the median seed-adjusted z-score is reported as inactive: 0.00735. With UGGACAUGAUCAAAAAUAATT against COL6A1 the median seed-adjusted z-score was inactive: 0.509. In the case of CCGUCUUCAUUUUGUCAGATT against ATP2C2, the median seed-adjusted z-score is reported as inactive: -0.302. In the case of UGAUGACAAAGACGGCAAATT against THOC3, the median seed-adjusted z-score is reported as inactive: 0.689. With GGAUGUUGAUGAAGGCAAATT against LDHAL6A the median seed-adjusted z-score was inactive: -0.15. For GGUCAAAGAGUUAUAGAUUTT against MKKS, the median seed-adjusted z-score was active: 1.03. For GCUUAGAUCACAUAGCAGATT against FBXW11, the median seed-adjusted z-score was inactive: 0.206. For GGCGAGAAAUUGUCCUAUUTT against NKX2-3, the median seed-adjusted z-score was inactive: -0.2. With GGAGGAUAUUAGUAAAACUTT against PCDHB16 the median seed-adjusted z-score was inactive: -0.523. With GCUUUGUGAGUUACGAAAATT against PABPC4 the median seed-adjusted z-score was inactive: -0.42. With CAUGGACCCUGAUGACAUATT against UROD the median seed-adjusted z-score was active: 1.11. With GCCUCUUCUCGUCACCCAATT against KCNF1 the median seed-adjusted z-score was inactive: -0.19. In the case of CAGCAGACCUGAUGACUUATT against GNG3, the median seed-adjusted z-score is reported as inactive: -0.186. In the case of CACCUGCCAGUGUUAUUUATT against CRIP2, the median seed-adjusted z-score is reported as inactive: -0.226. In the case of GAGAGACCGUCACACUGAATT against GRIP2, the median seed-adjusted z-score is reported as inactive: -0.0256. For GUAAUUAUCUUCCAUGAAATT against KRT37, the median seed-adjusted z-score was inactive: 0.0484. For GAUUCUUGAUGCUAUCGAUTT against ARSF, the median seed-adjusted z-score was inactive: 0.111. In the case of CACCAGAGCUUGAUCGUCUTT against CYB5R4, the median seed-adjusted z-score is reported as inactive: 0. For GCUGAAAUCAAAAAGCGGATT against RAB1B, the median seed-adjusted z-score was active: 1.55. For GGAUAUCUUCUGCGACAAUTT against CRTAC1, the median seed-adjusted z-score was inactive: 0.113. For GCUCCUUACCUGAUGUUGATT against HERC4, the median seed-adjusted z-score was inactive: 0.00343. With GCCGGAAGAUGUGAAGAGATT against PMPCA the median seed-adjusted z-score was inactive: -0.985. With CAUUCAAAUUUACCCUGUATT against POLR2H the median seed-adjusted z-score was active: -2.74. With CAAGGCAGCUCUACACUCATT against SPHK2 the median seed-adjusted z-score was inactive: 0. For CAAUGUCGAUGAGCUGUUUTT against GYG2, the median seed-adjusted z-score was inactive: 0.113. For GACUUGGAAGGGUUUAAGATT against ABCD4, the median seed-adjusted z-score was inactive: -0.114. In the case of GGAUGGUCUUUUAGUAAGATT against CBR4, the median seed-adjusted z-score is reported as inactive: -0.66. For AGACCGCACUGACAGAGGATT against BAIAP2, the median seed-adjusted z-score was inactive: -0.0497. In the case of CAACAAAUCAAAAGUGAGATT against EFCAB4B, the median seed-adjusted z-score is reported as inactive: 0. In the case of UUACACCGUUUGUUAAUAATT against NAT14, the median seed-adjusted z-score is reported as inactive: -0.283. With GCAAUUUACUUUCAAGGUATT against SYT1 the median seed-adjusted z-score was inactive: 0.435. For GAACAAUGGUGGAUCCAAATT against PARVA, the median seed-adjusted z-score was inactive: 0.0852. With CAACCACUUUGAGACCUAUTT against WFIKKN2 the median seed-adjusted z-score was inactive: -0.353. In the case of UCUACGACGUGGACGGUAATT against RCVRN, the median seed-adjusted z-score is reported as inactive: 0.562. In the case of AGAGCCUAAUGGACAGUGATT against DHRS3, the median seed-adjusted z-score is reported as inactive: 0.175. With GCUUUCAGCUGAACGAACUTT against LTF the median seed-adjusted z-score was inactive: 0.236. With GCUGAGUCCUUCUUCCAUATT against XYLT1 the median seed-adjusted z-score was inactive: -0.274. In the case of CGAGUGUAUGAAGAACGAATT against LAMC1, the median seed-adjusted z-score is reported as inactive: 0.0473. For GGAAAGUUAUCAGGAUGCATT against SAG, the median seed-adjusted z-score was inactive: 0. In the case of CGUGGUCAGUUUGAACGAATT against TTLL4, the median seed-adjusted z-score is reported as inactive: -0.256. With CGACAUUCAGUUUACCUUATT against SOX17 the median seed-adjusted z-score was inactive: -0.46. In the case of GAGUUCCCAUCUUCAAGUUTT against ZNF45, the median seed-adjusted z-score is reported as inactive: 0.172. For GGUGACAGAUUGACUGGGATT against CRADD, the median seed-adjusted z-score was inactive: -0.255. For GAAUAAGCCGUGUACUGAUTT against CASD1, the median seed-adjusted z-score was inactive: 0.202. For GAACCGCCCUCCUGAUUAATT against WNT3A, the median seed-adjusted z-score was inactive: -0.66. In the case of CAAUAUCGAUGAGGAUUUUTT against MPP3, the median seed-adjusted z-score is reported as inactive: 0. With GUCCAAAUACAGUCUCUUATT against MAP3K14 the median seed-adjusted z-score was inactive: -0.0609. With GCGUGGUGUUGCUAACCUUTT against CCL22 the median seed-adjusted z-score was inactive: 0. With GAACCUCCGCAGAGACAAATT against EIF3D the median seed-adjusted z-score was inactive: 0.104. In the case of AGAUCUACCAGAAGAUUGATT against EHD1, the median seed-adjusted z-score is reported as inactive: -0.616. For GCAUCCGUGUCAUUCUGGATT against SLC3A2, the median seed-adjusted z-score was inactive: -0.0428. With CCAAGGUCUCAUCUUCGUATT against ARF6 the median seed-adjusted z-score was inactive: -0.805. With GGGAGAUCGUCAUCCGAGATT against PHKG1 the median seed-adjusted z-score was inactive: -0.153. With CUCUUUACUUGAACGAGAATT against TSC22D2 the median seed-adjusted z-score was inactive: 0. For GGCUAUCUACAAAAUGGUATT against VSNL1, the median seed-adjusted z-score was inactive: 0.0569. For ACAGACCUGAUAUCCAGAATT against MECR, the median seed-adjusted z-score was inactive: 0.0339. In the case of GAAUUGGAAUGUGAGGAUATT against ZNF622, the median seed-adjusted z-score is reported as inactive: -0.462. In the case of AGAUGGAAGUCGCAUUGUATT against RAB40A, the median seed-adjusted z-score is reported as inactive: 0. In the case of GACUAUAUCUCCAGAUUAUTT against FKBP1A, the median seed-adjusted z-score is reported as inactive: 0.113. In the case of UGAUUAUCAUCACAGCAGATT against THAP1, the median seed-adjusted z-score is reported as inactive: 0.139. With CAAACGAUCUGAAGGUGAATT against AKTIP the median seed-adjusted z-score was inactive: -0.194. With CAAUAACCAUGAACUUCGATT against B3GALNT2 the median seed-adjusted z-score was inactive: -0.227. In the case of CAACAAUAUCAUAAGGAAATT against PSPC1, the median seed-adjusted z-score is reported as inactive: 0.0612. In the case of GACAGAAGGUAGUAGGAUUTT against SEMA4D, the median seed-adjusted z-score is reported as inactive: 0.309.
